We go through one compound from US10238744B2, “High load dispersions” (Austin Research Labs Corp., priority 2011, dated 2019).

The experiment concerns S. aureus 6538. The experiment is described as follows: Time Kill of clay/polymer-BTC formulations. The format is cell-based. How it is done: Experiments were conducted during development of embodiments of the present invention to determine the difference in microbial reduction between an active ingredient bound to clay and a mixture of bound and free actives. A bentonite clay-benzethonium chloride (BTC) slurry was mixed by hydrating the clay in water, adding BTC solubilized in water, centrifuging and decanting the supernatant.
Both were added to an oil phase having the following components:
The Time Kill results are seen in Table 3:
The laponite mixtures were formed similarly to the bentonite described above. The Time Kill results are seen in Table 4:
A commercially available hydrophobically modified polymer, Polymer SK-M from Dow (polyquaternium 67, quaternized hydroxyl ethyl cellulose modified with dimethyl-dodecyl hydrophobic functionality to prevent solution but retaining significant hydrophilic function), was used to replace the natural clays used in the examples discussed above. An SK-M-BTC slurry was formed by dry mixing BTC and SK-M then hydrating overnight in water. In an alternate mixing method, SK-M was expanded in hot water and cooled after adding the remaining water. BTC was then added and allowed to sit overnight. A mixture was formed adding the slurry to a water-GEOGARD ULTRA-gluconate mixture to complete the water phase. GEOGUARD ULTRA (Lonza) is a preservative containing glucolactone and sodium benzoate. […]

In the case of `CC(C)(C)CC(C)(C)c1ccc(OCCOCC[N+](C)(C)Cc2ccccc2)cc1` [BTC, benzethonium chloride], the “kill of S. aureus (in words)” value by setting is: (FIG. 1, bentonite experiment) “fast kill”; (FIG. 2, LAPONITE experiment) “fast kill”.
